For the assay, the system named is GL261 and U87 cells. Kind of assay: MTT cytotoxicity assay in cancer cells. The class given is cell-based, mouse; human.

Molecule `O=C(CCCN1CCC(O)(c2ccc(Cl)cc2)CC1)c1ccc(F)cc1` [H8] came in with an IC50 of 2000 to 2600 nM.

For the origin of these results see patent US20240122912A1, “A NANOFORMULATION FOR GLIOMA TREATMENT AND PROCESS FOR ITS PREPARATION THEREOF” (COUNCIL OF SCIENTIFIC AND INDUSTRIAL RESEARCH, priority 2021, published 2024).
